Holding throughout (assay): co-IP; nuclear extracts of HEK293 cells expressing WT, H287A or R286A GFP-FOXM1 or GFP only (Active Motif nuclear co-IP kit, enzymatic shearing, low IP buffer); pull-down with a GFP antibody by the legend, with FOXM1 antibody sc-502 by the methods; protein A magnetic beads; western blots for B-Myb, LIN9 and TF2B
In general terms: A western blot detects proteins with antibodies after separation by electrophoresis.

Protein sequences, listed by entry. Tags and fused reporters are not part of them.
UniProt P10244: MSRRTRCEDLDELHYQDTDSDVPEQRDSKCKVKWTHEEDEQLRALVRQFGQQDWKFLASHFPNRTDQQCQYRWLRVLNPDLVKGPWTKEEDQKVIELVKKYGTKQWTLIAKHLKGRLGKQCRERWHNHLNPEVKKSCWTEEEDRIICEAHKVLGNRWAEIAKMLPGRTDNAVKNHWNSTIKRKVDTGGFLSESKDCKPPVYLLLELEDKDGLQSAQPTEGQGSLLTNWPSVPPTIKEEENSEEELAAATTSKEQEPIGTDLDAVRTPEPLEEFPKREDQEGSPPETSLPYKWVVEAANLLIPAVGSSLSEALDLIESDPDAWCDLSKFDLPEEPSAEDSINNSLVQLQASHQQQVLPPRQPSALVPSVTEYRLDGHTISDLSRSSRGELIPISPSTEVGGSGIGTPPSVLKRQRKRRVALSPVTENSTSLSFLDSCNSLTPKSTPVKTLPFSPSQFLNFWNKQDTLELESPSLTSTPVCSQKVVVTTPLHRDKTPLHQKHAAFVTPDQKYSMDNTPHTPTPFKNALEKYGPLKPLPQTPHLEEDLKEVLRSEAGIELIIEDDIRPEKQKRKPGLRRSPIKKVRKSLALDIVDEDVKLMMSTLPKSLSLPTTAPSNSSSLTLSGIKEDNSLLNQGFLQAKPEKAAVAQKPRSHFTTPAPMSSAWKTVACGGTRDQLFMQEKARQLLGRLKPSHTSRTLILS
UniProt Q5TKA1: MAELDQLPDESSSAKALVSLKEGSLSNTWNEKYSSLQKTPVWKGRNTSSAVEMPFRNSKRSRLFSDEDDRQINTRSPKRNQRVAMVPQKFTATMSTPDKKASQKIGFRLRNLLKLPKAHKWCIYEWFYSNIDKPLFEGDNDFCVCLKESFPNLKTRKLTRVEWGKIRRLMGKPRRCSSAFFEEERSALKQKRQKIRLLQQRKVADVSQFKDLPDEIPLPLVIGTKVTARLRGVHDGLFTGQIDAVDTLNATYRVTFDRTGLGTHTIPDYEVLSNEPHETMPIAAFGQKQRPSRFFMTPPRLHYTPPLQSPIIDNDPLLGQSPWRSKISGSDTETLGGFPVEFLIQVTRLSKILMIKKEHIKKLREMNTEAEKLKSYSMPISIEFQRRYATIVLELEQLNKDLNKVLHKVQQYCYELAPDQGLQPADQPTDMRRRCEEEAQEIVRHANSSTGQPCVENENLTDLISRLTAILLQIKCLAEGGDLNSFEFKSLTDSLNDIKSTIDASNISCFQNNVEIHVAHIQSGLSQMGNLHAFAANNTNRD
UniProt Q00403: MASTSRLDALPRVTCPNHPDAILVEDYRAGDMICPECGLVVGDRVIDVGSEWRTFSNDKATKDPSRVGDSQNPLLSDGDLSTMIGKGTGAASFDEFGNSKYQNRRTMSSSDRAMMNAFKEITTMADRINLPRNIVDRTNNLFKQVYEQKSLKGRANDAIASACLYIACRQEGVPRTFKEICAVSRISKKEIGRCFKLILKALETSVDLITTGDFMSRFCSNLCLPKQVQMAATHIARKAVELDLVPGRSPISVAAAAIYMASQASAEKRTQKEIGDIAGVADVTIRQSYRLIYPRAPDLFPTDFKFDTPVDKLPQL

The target in one assay is T1, GFP-FOXM1B R286A (human) (UniProt Q08050).
T1 sequence: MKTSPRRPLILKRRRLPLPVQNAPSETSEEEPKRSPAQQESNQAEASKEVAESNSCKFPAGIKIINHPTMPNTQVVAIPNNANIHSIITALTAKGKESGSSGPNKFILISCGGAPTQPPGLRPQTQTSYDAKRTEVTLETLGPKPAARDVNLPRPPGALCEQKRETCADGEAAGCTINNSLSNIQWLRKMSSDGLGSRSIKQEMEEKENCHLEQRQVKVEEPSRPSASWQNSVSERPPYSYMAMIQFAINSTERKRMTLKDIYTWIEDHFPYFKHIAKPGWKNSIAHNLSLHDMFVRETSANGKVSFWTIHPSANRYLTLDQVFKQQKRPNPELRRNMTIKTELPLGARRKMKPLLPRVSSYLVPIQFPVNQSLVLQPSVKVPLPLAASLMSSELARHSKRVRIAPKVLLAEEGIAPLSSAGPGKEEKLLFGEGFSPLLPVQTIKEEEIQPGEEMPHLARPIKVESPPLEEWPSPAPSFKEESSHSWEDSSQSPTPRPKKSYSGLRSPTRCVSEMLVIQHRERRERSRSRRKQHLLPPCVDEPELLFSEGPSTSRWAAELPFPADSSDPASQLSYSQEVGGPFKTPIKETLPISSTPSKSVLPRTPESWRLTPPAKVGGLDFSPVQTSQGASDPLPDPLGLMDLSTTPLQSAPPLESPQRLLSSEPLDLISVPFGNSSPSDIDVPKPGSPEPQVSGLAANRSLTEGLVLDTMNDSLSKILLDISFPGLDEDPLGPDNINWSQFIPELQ

The next assay concerns the target T2, GFP-FOXM1B H287A (human) (UniProt Q08050).
T2 sequence: T1 sequence with A286R, H287A

Assay [1] addresses T3, GFP-FOXM1B wild type (human) (UniProt Q08050).
T3 sequence: T1 sequence with A286R

Binding data for three substances are collected here from paper PMC4492089, “FOXM1 binds directly to non-consensus sequences in the human genome”.

Substitutions are numbered along the chain they refer to. No constants are given. Whether binding was seen depends on the method and setting. Binding seen in cells or lysates may run through a third protein. Some entries that bind do so weakly or less than the wild type. Tags and fused reporters may be left off the sequences shown.

As to B-MYB (from UniProt P10244 1-700), the binding result (with GFP-FOXM1B R286A (human); in the assay with GFP-FOXM1B H287A (human); in assay [1]) was “binds” in each case.
As to LIN9 (from UniProt Q5TKA1 1-542), the binding entry (with GFP-FOXM1B R286A (human); in the assay with GFP-FOXM1B H287A (human); in assay [1]) was “binds” throughout.
Regarding “general transcription factor TF2B (from UniProt Q00403 1-316)”, the binding entry (in the assay with GFP-FOXM1B R286A (human); in assay [1]) was “binds” each time.
